The list shows a part of the results.
Compound: Cc1cc(ccc1-c1ccccc1)C(=O)N1CCCN(CC1)C(=O)CCl [compound 10]
Test: probe-labelled cysteine peptide fold change vs DMSO (competition) (log2 fold change); higher = less target engagement (more negative = stronger competition)
Settings: THP-1, incubation time: 4 h
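Note: competitive profiling in live THP-1 cells: cysteine peptides tagged with an iodoacetamide desthiobiotin (IA-DTB) probe, intensity after compound treatment relative to DMSO-treated cells.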

Protein sequences, listed by entry. Tags and fused reporters are not part of them. Lines headed by an entry give the natural chain unless they say otherwise; changes in a name come on top.
UniProt P28799: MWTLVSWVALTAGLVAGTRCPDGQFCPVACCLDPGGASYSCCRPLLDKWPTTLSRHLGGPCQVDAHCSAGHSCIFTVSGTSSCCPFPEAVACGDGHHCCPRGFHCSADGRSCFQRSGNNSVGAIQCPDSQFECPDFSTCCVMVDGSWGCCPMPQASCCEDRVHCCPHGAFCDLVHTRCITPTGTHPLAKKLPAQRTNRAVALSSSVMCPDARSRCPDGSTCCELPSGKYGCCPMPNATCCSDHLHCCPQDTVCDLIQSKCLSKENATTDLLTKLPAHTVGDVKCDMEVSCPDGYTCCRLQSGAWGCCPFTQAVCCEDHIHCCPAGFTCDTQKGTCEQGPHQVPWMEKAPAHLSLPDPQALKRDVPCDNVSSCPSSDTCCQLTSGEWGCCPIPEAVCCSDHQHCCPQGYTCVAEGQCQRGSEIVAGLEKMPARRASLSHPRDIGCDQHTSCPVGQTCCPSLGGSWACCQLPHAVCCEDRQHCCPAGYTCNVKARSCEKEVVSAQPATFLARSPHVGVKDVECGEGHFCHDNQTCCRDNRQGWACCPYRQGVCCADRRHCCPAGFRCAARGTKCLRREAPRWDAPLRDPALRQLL
UniProt P53701: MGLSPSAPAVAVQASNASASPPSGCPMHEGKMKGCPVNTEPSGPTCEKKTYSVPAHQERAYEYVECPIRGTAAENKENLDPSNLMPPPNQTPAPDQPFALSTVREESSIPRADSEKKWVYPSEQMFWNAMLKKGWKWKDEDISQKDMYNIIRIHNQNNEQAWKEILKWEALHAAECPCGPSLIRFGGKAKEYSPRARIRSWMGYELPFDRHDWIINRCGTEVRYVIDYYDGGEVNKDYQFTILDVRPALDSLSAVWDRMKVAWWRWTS
UniProt Q9UKN8: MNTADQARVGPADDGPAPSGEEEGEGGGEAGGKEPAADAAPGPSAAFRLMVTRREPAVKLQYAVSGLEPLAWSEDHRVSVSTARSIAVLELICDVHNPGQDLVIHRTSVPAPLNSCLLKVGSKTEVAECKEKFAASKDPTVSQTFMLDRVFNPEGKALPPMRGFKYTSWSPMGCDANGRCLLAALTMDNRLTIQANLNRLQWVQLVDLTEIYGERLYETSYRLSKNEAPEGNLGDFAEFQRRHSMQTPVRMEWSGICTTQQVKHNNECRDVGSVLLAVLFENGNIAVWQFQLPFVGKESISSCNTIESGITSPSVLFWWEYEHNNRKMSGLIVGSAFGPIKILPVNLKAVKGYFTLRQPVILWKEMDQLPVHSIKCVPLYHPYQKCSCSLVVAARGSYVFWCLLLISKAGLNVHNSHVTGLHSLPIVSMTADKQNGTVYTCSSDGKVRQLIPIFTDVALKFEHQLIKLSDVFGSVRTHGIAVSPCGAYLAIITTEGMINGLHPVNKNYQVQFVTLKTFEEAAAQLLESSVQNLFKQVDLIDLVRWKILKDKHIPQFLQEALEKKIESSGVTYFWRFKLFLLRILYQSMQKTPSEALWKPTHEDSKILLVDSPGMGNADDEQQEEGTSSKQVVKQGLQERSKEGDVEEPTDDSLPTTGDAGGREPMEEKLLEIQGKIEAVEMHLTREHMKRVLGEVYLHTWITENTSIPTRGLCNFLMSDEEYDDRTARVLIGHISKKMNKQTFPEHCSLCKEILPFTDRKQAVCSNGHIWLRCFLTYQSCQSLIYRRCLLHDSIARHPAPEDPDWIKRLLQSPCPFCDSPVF
UniProt Q12849: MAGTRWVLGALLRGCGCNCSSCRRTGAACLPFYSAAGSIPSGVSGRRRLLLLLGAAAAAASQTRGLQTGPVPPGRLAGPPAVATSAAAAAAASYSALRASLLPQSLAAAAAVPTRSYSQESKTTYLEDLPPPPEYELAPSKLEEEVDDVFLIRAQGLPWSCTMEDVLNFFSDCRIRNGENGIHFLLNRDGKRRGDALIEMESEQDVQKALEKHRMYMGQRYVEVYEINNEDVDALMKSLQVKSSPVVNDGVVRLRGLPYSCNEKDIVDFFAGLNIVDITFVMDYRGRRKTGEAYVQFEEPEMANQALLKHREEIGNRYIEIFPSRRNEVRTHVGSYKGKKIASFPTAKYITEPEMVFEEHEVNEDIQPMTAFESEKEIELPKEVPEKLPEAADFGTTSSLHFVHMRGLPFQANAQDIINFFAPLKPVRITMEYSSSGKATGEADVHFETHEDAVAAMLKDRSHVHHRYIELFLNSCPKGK
UniProt Q9Y5Q8: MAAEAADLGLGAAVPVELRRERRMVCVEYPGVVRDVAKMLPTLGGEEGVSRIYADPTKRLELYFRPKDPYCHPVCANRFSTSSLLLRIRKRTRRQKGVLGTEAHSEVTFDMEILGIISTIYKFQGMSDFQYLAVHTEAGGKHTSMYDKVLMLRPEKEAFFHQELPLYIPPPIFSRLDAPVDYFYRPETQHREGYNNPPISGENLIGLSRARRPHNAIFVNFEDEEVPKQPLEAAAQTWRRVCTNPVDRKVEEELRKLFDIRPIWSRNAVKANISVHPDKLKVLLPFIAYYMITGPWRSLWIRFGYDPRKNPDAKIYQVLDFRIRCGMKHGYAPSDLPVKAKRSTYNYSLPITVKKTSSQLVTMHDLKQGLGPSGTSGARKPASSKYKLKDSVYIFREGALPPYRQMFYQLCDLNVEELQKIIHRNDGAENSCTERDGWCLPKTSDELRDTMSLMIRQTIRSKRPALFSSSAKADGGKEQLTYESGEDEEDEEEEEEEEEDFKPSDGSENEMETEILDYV
UniProt Q9H6D7: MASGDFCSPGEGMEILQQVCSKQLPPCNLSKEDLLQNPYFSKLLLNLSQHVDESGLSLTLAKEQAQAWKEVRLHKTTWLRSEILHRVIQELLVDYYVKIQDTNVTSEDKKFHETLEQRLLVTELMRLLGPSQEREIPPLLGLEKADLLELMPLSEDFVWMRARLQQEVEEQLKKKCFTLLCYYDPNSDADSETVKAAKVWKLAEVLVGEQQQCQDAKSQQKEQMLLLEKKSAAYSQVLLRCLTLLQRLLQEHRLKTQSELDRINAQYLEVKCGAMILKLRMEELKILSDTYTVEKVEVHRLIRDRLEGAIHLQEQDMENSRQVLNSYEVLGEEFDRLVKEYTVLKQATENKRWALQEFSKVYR
UniProt O60443: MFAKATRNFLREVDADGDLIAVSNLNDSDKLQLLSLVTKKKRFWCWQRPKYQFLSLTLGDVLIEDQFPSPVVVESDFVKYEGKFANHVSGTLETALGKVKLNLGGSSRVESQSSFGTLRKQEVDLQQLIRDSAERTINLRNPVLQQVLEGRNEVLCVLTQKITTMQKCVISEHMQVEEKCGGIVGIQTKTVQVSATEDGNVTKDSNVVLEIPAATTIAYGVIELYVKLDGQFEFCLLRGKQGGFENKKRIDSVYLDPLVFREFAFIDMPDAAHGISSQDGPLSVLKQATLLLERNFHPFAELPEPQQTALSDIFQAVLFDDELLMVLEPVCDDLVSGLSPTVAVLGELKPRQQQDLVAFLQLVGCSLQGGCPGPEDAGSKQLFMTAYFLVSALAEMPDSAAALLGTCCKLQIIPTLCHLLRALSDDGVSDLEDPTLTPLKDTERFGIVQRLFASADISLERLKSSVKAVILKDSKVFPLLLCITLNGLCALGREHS
UniProt Q12789: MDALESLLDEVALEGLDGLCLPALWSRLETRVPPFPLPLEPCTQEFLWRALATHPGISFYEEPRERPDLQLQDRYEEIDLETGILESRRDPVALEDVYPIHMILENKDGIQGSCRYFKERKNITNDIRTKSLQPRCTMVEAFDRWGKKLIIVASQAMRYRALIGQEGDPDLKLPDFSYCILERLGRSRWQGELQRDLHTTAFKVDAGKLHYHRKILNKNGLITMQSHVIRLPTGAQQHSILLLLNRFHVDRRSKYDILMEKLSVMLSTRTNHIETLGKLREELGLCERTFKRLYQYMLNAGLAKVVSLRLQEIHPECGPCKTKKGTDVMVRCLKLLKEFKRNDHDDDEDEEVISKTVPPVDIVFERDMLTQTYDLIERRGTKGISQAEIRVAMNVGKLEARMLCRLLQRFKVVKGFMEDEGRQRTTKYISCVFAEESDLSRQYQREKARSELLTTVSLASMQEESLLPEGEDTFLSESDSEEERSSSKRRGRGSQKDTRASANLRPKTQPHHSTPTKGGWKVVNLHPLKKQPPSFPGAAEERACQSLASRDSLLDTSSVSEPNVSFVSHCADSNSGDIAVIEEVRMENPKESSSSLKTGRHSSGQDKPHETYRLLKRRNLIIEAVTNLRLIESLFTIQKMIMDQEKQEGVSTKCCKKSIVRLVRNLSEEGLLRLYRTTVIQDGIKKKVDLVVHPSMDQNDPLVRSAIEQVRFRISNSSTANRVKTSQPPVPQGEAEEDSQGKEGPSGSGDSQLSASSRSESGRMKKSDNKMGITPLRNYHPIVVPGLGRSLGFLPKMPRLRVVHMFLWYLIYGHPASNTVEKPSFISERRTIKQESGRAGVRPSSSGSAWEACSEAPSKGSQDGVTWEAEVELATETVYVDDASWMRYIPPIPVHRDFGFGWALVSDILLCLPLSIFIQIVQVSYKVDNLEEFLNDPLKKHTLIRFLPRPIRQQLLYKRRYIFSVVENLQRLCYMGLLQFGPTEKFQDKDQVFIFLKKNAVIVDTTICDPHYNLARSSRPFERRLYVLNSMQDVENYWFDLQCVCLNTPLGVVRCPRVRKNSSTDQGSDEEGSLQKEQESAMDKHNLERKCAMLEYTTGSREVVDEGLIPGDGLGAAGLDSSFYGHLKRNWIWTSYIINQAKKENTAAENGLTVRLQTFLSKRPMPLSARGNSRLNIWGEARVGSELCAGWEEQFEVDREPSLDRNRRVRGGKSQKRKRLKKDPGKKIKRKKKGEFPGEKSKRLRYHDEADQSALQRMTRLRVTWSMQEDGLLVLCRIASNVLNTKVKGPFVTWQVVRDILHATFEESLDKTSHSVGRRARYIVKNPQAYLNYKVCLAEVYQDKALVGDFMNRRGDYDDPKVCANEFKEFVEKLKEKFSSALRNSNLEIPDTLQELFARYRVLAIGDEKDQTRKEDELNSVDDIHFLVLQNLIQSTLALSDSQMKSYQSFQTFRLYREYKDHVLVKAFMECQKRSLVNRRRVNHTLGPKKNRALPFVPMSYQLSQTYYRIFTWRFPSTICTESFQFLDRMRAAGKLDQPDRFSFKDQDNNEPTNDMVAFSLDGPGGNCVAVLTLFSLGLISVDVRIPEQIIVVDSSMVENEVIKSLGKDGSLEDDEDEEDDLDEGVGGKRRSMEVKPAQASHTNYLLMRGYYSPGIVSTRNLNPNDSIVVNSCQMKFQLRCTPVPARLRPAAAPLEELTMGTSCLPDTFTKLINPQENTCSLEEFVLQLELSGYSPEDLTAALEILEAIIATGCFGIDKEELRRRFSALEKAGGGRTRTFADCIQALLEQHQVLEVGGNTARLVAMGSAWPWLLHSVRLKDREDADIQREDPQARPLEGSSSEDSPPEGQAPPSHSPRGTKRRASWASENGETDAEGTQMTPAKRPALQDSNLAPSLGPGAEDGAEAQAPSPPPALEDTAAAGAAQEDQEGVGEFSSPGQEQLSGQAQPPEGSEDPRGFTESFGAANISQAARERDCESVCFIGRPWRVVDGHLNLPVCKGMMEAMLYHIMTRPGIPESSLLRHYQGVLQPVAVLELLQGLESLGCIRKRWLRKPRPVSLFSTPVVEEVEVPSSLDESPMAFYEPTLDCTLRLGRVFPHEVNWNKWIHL
UniProt Q96CS2: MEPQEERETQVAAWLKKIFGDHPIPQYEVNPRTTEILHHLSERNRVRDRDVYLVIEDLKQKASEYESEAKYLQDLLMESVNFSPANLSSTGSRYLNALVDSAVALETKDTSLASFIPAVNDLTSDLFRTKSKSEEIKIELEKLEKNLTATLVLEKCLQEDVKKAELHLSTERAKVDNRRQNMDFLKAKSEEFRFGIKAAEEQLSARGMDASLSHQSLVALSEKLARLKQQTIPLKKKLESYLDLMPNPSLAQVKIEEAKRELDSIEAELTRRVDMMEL
UniProt Q8TAA5: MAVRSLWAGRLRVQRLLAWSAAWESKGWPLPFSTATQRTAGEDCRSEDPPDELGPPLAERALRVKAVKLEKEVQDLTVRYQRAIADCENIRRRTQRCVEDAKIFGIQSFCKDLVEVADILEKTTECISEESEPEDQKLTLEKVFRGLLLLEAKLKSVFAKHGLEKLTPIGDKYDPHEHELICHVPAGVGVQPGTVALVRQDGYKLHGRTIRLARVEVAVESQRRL
UniProt Q92664: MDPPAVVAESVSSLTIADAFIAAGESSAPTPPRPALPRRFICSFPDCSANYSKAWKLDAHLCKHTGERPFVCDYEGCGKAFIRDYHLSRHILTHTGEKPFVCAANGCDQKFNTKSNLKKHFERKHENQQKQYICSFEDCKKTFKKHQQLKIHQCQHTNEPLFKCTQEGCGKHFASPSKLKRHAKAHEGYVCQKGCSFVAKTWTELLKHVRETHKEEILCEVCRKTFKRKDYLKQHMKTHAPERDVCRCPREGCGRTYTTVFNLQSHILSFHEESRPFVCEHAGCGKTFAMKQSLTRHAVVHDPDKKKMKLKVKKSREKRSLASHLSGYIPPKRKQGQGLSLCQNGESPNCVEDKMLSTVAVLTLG

## GRN_P28799_543_QGWACCPYR (UniProt P28799)
10 µM
  probe-labelled cysteine peptide fold change: 0.00927
50 µM
  probe-labelled cysteine peptide fold change: 0.0238

## HCCS_P53701_176+178_WEALHAAECPCGPSLIR (UniProt P53701)
10 µM
  probe-labelled cysteine peptide fold change: 0.0448
50 µM
  probe-labelled cysteine peptide fold change: -0.686

## GTF3C4_Q9UKN8_268_HNNECR (UniProt Q9UKN8)
10 µM
  probe-labelled cysteine peptide fold change: -0.084
50 µM
  probe-labelled cysteine peptide fold change: 0.313

## GRSF1_Q12849_476_YIELFLNSCPK (UniProt Q12849)
10 µM
  probe-labelled cysteine peptide fold change: -0.167
50 µM
  probe-labelled cysteine peptide fold change: -0.33

## GTF3C5_Q9Y5Q8_242_VCTNPVDR (UniProt Q9Y5Q8)
10 µM
  probe-labelled cysteine peptide fold change: -0.0082
50 µM
  probe-labelled cysteine peptide fold change: -0.169

## GTSF1_Q8WW33_51_LATCPFNAR (UniProt Q8WW33)
10 µM
  probe-labelled cysteine peptide fold change: 0.0982
50 µM
  probe-labelled cysteine peptide fold change: -0.65

## GTF3C5_Q9Y5Q8_75_DPYCHPVCANR (UniProt Q9Y5Q8)
10 µM
  probe-labelled cysteine peptide fold change: 0.121
50 µM
  probe-labelled cysteine peptide fold change: 0.621

## HAUS4_Q9H6D7_272_CGAMILK (UniProt Q9H6D7)
10 µM
  probe-labelled cysteine peptide fold change: 0.243
50 µM
  probe-labelled cysteine peptide fold change: 0.137

## GRHPR_Q9UBQ7_57_GVAGAHGLLCLLSDHVDKR (UniProt Q9UBQ7)
10 µM
  probe-labelled cysteine peptide fold change: 0.0524
50 µM
  probe-labelled cysteine peptide fold change: -0.0645

## H2AFY_O75367_286_FVIHCNSPVWGADKCEELLEK (UniProt O75367)
10 µM
  probe-labelled cysteine peptide fold change: -0.209
50 µM
  probe-labelled cysteine peptide fold change: -0.328

## GSE1_Q14687_777_CVAEQPPLK (UniProt Q14687)
10 µM
  probe-labelled cysteine peptide fold change: -0.258
50 µM
  probe-labelled cysteine peptide fold change: -0.204

## GSDMD_P57764_38_RVVQELDHGGEFIPVTSLQSSTGFQPYCLVVR (UniProt P57764)
10 µM
  probe-labelled cysteine peptide fold change: 0.275
50 µM
  probe-labelled cysteine peptide fold change: -0.375

## GSDME_O60443_180_CGGIVGIQTK (UniProt O60443)
10 µM
  probe-labelled cysteine peptide fold change: -0.105
50 µM
  probe-labelled cysteine peptide fold change: -0.495

## GSS_P48637_422_VVQCISELGIFGVYVR (UniProt P48637)
10 µM
  probe-labelled cysteine peptide fold change: 0.186
50 µM
  probe-labelled cysteine peptide fold change: 0.0454

## GTF3C1_Q12789_1977_ERDCESVCFIGRPWR (UniProt Q12789)
10 µM
  probe-labelled cysteine peptide fold change: -0.0113
50 µM
  probe-labelled cysteine peptide fold change: -0.287

## HAUS1_Q96CS2_156_CLQEDVK (UniProt Q96CS2)
10 µM
  probe-labelled cysteine peptide fold change: 0.151
50 µM
  probe-labelled cysteine peptide fold change: 0.281

## GRPEL2_Q8TAA5_87_AIADCENIR (UniProt Q8TAA5)
10 µM
  probe-labelled cysteine peptide fold change: -0.139
50 µM
  probe-labelled cysteine peptide fold change: -0.27

## GTF3C4_Q9UKN8_764_QAVCSNGHIWLR (UniProt Q9UKN8)
10 µM
  probe-labelled cysteine peptide fold change: 0.0419
50 µM
  probe-labelled cysteine peptide fold change: 0.185

## GTF3A_Q92664_191_AHEGYVCQK (UniProt Q92664)
10 µM
  probe-labelled cysteine peptide fold change: 0.112
50 µM
  probe-labelled cysteine peptide fold change: -0.151

— the supplement of paper PMC12067093, “Discovery and optimisation of a covalent ligand for TRIM25 and its application to targeted protein ubiquitination” (Chemical Science, 2025)
